# Results: PubChem BioAssay (EPA / NIEHS)
# By UniProt entry, the sequences of proteins in these tests, tags left out. Where a name states a change or a piece, a line headed by the entry shows the natural chain unless it says otherwise.
# UniProt P42575: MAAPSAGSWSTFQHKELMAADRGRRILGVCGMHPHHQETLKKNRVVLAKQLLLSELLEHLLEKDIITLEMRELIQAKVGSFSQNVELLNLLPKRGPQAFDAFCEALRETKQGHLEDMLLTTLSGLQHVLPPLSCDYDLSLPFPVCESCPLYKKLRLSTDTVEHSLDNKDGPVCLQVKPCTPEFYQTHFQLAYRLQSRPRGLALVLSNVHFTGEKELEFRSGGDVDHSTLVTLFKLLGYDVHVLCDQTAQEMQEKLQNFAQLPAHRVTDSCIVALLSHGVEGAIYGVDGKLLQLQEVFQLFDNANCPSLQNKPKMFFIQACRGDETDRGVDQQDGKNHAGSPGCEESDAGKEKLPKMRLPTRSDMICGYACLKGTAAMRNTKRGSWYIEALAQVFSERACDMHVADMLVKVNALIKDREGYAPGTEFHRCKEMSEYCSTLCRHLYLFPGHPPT
# UniProt P23975, whole entry, looked up: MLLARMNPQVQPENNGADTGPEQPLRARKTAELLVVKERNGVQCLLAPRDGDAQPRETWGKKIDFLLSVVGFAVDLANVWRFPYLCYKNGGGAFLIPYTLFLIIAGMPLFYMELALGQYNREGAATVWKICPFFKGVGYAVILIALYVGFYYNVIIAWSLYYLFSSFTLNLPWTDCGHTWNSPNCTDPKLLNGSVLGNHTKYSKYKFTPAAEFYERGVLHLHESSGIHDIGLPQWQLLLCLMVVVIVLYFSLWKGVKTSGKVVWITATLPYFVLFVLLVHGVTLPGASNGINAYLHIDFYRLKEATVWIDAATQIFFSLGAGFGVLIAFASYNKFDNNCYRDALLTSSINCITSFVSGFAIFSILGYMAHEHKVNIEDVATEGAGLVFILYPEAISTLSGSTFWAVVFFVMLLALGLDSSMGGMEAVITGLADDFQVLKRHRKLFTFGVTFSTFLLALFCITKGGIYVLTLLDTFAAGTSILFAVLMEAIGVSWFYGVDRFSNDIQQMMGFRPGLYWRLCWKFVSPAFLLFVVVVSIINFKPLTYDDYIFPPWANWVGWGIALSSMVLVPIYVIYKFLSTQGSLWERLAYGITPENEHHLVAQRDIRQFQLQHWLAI
# UniProt P41144: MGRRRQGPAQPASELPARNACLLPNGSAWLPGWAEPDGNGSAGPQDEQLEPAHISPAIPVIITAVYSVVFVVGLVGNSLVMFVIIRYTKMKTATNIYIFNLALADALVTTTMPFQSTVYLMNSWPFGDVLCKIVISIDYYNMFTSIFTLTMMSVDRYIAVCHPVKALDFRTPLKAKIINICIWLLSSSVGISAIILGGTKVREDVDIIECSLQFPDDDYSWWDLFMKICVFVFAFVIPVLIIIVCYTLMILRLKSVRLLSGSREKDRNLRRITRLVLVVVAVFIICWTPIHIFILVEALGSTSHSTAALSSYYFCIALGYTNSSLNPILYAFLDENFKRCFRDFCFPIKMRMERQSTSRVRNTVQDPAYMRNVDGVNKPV
# UniProt P21452, whole entry, looked up: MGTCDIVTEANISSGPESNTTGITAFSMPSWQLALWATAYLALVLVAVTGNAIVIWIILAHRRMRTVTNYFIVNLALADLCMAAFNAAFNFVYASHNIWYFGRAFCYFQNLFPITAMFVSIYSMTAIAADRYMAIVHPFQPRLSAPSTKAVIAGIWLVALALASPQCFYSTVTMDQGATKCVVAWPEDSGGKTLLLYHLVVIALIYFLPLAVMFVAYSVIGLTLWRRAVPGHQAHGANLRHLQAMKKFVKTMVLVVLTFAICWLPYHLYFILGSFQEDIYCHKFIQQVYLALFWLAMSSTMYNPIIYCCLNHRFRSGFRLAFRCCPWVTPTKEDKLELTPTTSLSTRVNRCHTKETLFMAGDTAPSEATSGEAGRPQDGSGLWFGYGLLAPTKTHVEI
# UniProt P37231: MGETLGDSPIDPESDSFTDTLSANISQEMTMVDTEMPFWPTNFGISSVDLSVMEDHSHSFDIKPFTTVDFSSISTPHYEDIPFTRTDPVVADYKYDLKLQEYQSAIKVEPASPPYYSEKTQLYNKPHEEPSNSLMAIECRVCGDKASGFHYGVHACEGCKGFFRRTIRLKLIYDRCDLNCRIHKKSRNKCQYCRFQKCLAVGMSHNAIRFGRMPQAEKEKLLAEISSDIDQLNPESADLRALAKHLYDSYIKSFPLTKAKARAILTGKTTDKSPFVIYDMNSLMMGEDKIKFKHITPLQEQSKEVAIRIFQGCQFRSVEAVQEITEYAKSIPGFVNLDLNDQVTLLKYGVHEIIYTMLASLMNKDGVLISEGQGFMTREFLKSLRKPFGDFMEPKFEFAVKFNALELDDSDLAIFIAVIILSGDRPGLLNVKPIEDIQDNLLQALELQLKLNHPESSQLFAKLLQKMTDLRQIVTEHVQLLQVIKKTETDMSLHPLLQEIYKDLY
# UniProt P03372, whole entry, looked up: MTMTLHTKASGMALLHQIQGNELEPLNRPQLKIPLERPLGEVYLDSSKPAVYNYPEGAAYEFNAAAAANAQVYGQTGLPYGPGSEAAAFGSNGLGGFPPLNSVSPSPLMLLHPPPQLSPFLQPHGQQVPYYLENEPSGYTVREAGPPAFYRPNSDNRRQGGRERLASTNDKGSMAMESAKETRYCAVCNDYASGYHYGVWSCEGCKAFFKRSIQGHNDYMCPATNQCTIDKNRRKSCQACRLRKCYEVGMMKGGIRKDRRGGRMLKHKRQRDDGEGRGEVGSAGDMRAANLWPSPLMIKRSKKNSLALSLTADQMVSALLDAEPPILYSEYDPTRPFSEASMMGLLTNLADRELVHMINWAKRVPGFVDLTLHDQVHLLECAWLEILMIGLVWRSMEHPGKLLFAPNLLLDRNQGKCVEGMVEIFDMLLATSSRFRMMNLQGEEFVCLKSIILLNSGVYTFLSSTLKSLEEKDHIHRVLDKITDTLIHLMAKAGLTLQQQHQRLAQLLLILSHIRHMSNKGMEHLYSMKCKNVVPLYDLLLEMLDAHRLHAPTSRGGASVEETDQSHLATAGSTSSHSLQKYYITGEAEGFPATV
# UniProt P16257, whole entry, looked up: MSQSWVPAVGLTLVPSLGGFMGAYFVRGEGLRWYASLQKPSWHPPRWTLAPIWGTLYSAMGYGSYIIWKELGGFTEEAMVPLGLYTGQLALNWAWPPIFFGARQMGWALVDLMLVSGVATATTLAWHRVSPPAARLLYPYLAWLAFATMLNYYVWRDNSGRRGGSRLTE
# UniProt P42574: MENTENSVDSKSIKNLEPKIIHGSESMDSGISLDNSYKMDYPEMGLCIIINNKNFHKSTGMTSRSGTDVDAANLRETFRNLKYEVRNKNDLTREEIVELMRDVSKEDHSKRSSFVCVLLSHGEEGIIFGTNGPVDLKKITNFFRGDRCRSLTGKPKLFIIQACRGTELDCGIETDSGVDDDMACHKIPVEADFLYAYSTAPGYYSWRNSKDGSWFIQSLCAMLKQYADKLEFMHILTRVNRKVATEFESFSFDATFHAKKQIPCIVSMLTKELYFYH
# UniProt P08684, whole entry, looked up: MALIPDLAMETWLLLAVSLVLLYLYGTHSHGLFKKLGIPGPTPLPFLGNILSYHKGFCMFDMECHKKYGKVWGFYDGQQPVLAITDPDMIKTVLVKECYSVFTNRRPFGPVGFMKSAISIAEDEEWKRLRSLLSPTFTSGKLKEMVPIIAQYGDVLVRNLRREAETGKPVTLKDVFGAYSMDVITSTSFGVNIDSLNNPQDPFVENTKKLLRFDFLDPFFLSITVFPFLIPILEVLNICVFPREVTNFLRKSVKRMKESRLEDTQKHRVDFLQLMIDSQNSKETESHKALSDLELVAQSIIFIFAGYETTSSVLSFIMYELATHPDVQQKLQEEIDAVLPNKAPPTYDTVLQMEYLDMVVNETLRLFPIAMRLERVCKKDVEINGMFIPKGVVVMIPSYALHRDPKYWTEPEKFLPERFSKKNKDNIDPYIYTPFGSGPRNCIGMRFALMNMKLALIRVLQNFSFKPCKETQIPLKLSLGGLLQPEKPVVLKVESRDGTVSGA
# UniProt P27361, whole entry, looked up: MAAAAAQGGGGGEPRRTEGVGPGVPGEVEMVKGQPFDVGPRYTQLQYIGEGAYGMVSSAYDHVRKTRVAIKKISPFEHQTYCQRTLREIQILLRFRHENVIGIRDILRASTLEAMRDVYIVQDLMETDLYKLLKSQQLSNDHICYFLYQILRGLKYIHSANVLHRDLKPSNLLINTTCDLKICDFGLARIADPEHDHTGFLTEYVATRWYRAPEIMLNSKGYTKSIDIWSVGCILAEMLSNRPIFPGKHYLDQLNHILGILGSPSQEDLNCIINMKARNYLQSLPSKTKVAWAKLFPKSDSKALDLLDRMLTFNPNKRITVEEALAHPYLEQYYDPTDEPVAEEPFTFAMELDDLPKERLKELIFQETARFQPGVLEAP
# UniProt P20813: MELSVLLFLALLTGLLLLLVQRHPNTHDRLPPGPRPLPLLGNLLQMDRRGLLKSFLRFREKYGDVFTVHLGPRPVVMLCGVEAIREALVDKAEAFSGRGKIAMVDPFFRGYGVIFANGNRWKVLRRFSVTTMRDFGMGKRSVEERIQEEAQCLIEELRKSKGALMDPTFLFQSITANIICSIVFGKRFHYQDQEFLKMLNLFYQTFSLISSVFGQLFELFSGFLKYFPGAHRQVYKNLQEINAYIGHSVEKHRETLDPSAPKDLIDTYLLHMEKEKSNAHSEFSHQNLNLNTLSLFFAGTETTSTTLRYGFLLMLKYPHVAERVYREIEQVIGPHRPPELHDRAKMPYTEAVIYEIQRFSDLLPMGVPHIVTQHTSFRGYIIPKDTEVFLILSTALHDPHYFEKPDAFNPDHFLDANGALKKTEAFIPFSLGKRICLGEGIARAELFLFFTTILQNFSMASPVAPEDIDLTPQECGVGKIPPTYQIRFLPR
# “And” between values parts separate entries of the source, which are not always exact repeats. Equal entries are not always repeated. The inconclusive results got no clear call from the source; some entries with a clear call stand among them for comparison. For part of these data: Potencies beside an inconclusive call are fits to weak or partial responses and may not hold up. Some structures have more than one record in an assay (separate samples or runs), and their calls can disagree. The source made the active and inactive calls. The calls were made as follows: active = hit-call score of the fitted dose curve at least 0.9, where 1 is the maximum; inconclusive = response in the unintended direction; inactive = score below 0.9.
# Tests used:
# [1] = system: guinea pig Muscarinic, Peripheral (Mperiperal) Receptor, Non-selective Binding, gene 100379235; experiment: NVS_GPCR_gMPeripheral_NonSelective: NovaScreen (NVS) G Protein-Coupled Receptor Assay for guinea pig Muscarinic, Peripheral (Mperiperal) Receptor, Non-selective Binding (AID 2283250)
# Procedure, shortened: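 Guinea pig bladder membranes, radioligand binding read 1 h after dosing by filter scintillation counting; loss of signal vs DMSO. Primary duplicate screen at 25 uM, then concentration-response up to 50 uM.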
# [2] = molecular target: human Caspase 2 (CASP2), CASP2 (gene 835) (UniProt P42575); experiment: NVS_ENZ_hCASP2: NovaScreen (NVS) Enzymatic Assay for human Caspase 2 (CASP2) (AID 2283135)
# Procedure, shortened: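 E. coli-expressed enzyme in a cell-free protease assay, fluorescence read 1 h after dosing. Compounds at 25 uM in duplicate, with concentration-response up to 50 uM for hits; loss of signal against DMSO baseline.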
# [3] = molecular target: human Norepinephrine Transporter (NET), SLC6A2 (gene 6530) (UniProt P23975); experiment: NVS_TR_hNET: NovaScreen (NVS) Transporter Assay for human Norepinephrine Transporter (NET) (AID 2283377);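 as to AC50: displacement of radioligand from human NET seen as loss of scintillation signal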
# Procedure, shortened: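 Cell-free radioligand binding using CHO-derived membrane protein expressing human NET, read by filter scintillation counting 1 h after dosing; loss of signal vs DMSO. Initial duplicate screen at 25 uM, actives retested in concentration series.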
# [4] = molecular target: guinea pig Opioid, Kappa 1 Receptor (OpiateK), OPRK1 (gene 100135587) (UniProt P41144); experiment: NVS_GPCR_gOpiateK: NovaScreen (NVS) G Protein-Coupled Receptor Assay for guinea pig Opioid, Kappa 1 Receptor (OpiateK) (AID 2283252);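 also: radioligand displacement from kappa opioid receptor in guinea pig cerebellar membranes; active means reduced radioligand binding relative to DMSO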
# Procedure, shortened: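 Guinea pig cerebellar membranes, radioligand displacement with filter-based scintillation counting, 2 h after dosing. Primary screen single concentration 25 uM in duplicate; actives retested in concentration series; loss of binding fitted versus DMSO.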
# [5] = molecular target: human Neurokinin, NK2 Receptor, TACR2 (gene 6865) (UniProt P21452); experiment: NVS_GPCR_hNK2: NovaScreen (NVS) G Protein-Coupled Receptor Assay for human Neurokinin, NK2 Receptor (AID 2283278);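 also: actives reduce bound radioligand signal relative to DMSO baseline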
# Procedure, shortened: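 Cell-free radioligand binding using receptor protein extracted from CHO cells; readings taken 4 hours after chemical dosing by filter-based scintillation counting. Primary screen ran single concentration (25 uM) in duplicate; actives followed up in concentration series, loss-of-signal versus DMSO baseline.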
# [6] = NVS_IC_rCaDHPRCh_L: NovaScreen (NVS) Ion Channel Assay for rat Calcium Channel, Type L, Dihydropyridine Site (CaDHPRCh_L) (AID 2283320)
# Procedure, shortened: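 Radioligand binding to dihydropyridine site on rat cortical membranes, filter-based scintillation counting, 1 h after dosing. Screened in duplicate at 25 uM; actives rerun in concentration-response up to 50 uM. Loss of signal versus DMSO baseline.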
# [7] = molecular target: rat Glutamate, MK-801 Agonist Site (GluNMDA_MK801), Grin1 (gene 24408) (UniProt P35439); experiment: NVS_LGIC_rGluNMDA_MK801_Agonist: NovaScreen (NVS) Ligand-Gated Ion Channel Assay for rat Glutamate, MK-801 Agonist Site (GluNMDA_MK801) (AID 2283340)
# Procedure, shortened: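 Radioligand binding at MK-801 site in rat forebrain membranes, 1.5 h incubation, filter-based scintillation counting. Initially 25 uM in duplicate; actives then run in concentration-response up to 50 uM, fitted for gain of signal versus DMSO.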
# [8] = CCTE_Deisenroth_AIME_96WELL_CTox_Inactive: Cytotoxicity Assessment (CTOX) in CCTE's 96-well Estrogen Receptor Transactivation Assay without AIME metabolic competence (metabolism negative), Deisenroth Lab (AID 2284029)
# Procedure, shortened: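 Chemicals (10-point series, 0.002-200 uM) were incubated 2 h with alginate-water microspheres lacking S9. The conditioned medium was then transferred onto VM7Luc4E2 cells for 24 h. Viability was measured by protease-substrate cleavage to a fluorescent probe, with loss of signal fitted bidirectionally; n≥4 experimental replicates.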
# [9] = molecular target: Peroxisome proliferator-activated receptor gamma (Homo sapiens) (UniProt P37231); experiment: OT_PPARg_PPARgSRC1_1440: Odyssey Thera (OT) 24-hour Protein-Complementation Assay for Peroxisome Proliferator-activated Receptor Gamma/ SRC-1 Co-activator (AID 2283388)
# Procedure, shortened: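 HEK293T cells transiently transfected with PPARg and SRC-1 fused via (Gly4Ser)2 linker to split Venus YFP fragments (IFP1/IFP2) were dosed 24 h; fixed, Draq5-stained, imaged at 488/635 nm; nuclear/cytoplasmic fluorescence ratio scored versus DMSO baseline, gain-of-signal.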
# [10] = CCTE_Simmons_CellTiterGLO_HEK293T: Viability Assessment in CCTE's Assays for Thyroperoxidase (TPO) Inhibition, Simmons Lab (AID 2283665);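 as to AC50: cells exposed to compound for 24 h before readout; actives reduce ATP signal below DMSO vehicle meaning cytotoxicity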
# Procedure, shortened: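 HEK293T cells in DMEM with 1% FBS were dosed with 8 concentrations (5 nM–87.5 uM final, 0.5% DMSO) for 24 hr at 37C; ATP content was read by CellTiter-Glo luminescence, loss-of-signal versus DMSO, three biological replicates.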
# [11] = CCTE_Shafer_MEA_dev_LDH: CCTE's Lactate Dehydrogenase Assay for Cytotoxicity in the Neural Network Formation Assay, Shafer Lab (AID 2284068);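 also: exposure for twelve days from plating with re-dosing on DIV 5 and 9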
# Procedure, shortened: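 Primary rat cortical neurons were cultured on PEI-coated MEA plates and exposed from plating through day 12, with compound renewed at medium changes on DIV 5 and 9. LDH activity was read spectrophotometrically; loss of signal versus DMSO indicates reduced viability.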
# [12] = molecular target: Estrogen receptor (Homo sapiens) (UniProt P03372); experiment: NVS_NR_hER: NovaScreen (NVS) Nuclear Receptor Binding Assay for human Estrogen Receptor (ER) (AID 2283348)
# Procedure, shortened: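 Radioligand competitive displacement binding to estrogen receptor from MCF7 extract, cell-free; 18 h after dosing, scintillation read-out. Primary screen in duplicate at 25 uM; actives followed up in concentration series; loss of signal vs DMSO.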
# [13] = molecular target: rat Peripheral-type Benzodiazepine Receptor (PBR), Tspo (gene 24230) (UniProt P16257); experiment: NVS_MP_rPBR: NovaScreen (NVS) Membrane Protein Assay for rat Peripheral-type Benzodiazepine Receptor (PBR) (AID 2283335)
# Procedure, shortened: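 Radioligand displacement, rat kidney membrane prep, 1 h exposure, filter-based scintillation read; DMSO baseline, loss-of-signal scored. Primary screen at 25 uM in duplicate, actives followed up in concentration series.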
# Caspase-3 (Homo sapiens) = Caspase-3 (Homo sapiens) (UniProt P42574); experiment: NVS_ENZ_hCASP3: NovaScreen (NVS) Enzymatic Assay for human Caspase 3 (CASP3) (AID 2283139)
# Procedure, shortened: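 Recombinant human caspase-3 from E. coli with a fluorogenic substrate, read by fluorescence 1 h after dosing. Primary screen in duplicate at 25 uM. Actives (for example ≥30% inhibition) rerun as concentration-response up to 50 uM.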
# [14] = read-out: Cytochrome P450 3A4 (Homo sapiens) (UniProt P08684); experiment: CLD_CYP3A4_6hr: CellzDirect (CLD) Gene Expression Assay for xenobiotic metabolism (CYP3A4) at 6 hours (AID 2283680)
# Procedure, shortened: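 Primary human hepatocytes (two donor preparations) dosed; CYP3A4 mRNA harvested at 6 h and quantified by qNPA chemiluminescence. Gain of signal fitted against 0.2% DMSO vehicle; cytotoxicity flagged by phase-contrast morphology.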
# [15] = molecular target: Mitogen-activated protein kinase 3 (Homo sapiens) (UniProt P27361); experiment: NVS_ENZ_hMAPK3: NovaScreen (NVS) Enzymatic Assay for human Mitogen-Activated Protein Kinase 3 (MAPK 3) (AID 2283177)
# Procedure, shortened: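 Cell-free enzymatic assay with recombinant protein and specific substrate; fluorescence and electrophoretic mobility shift read-out 1 h after dosing. Primary screen duplicate at 25 uM; actives then run in concentration-response up to 50 uM, loss of signal versus DMSO.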
# [16] = molecular target: human SRC Proto-Oncogene, Non-receptor Tyrosine Kinase (SRC), SRC (gene 6714) (UniProt P12931); experiment: NVS_ENZ_hSRC: NovaScreen (NVS) Enzymatic Assay for human SRC Proto-Oncogene, Non-receptor Tyrosine Kinase (SRC) (AID 2283223)
# Procedure, shortened: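 Cell-free kinase activity assay with fluorescent substrate, product separated by electrophoretic mobility shift, read 1 h after dosing. Duplicate single point at 25 uM, then concentration-response up to 50 uM; loss of signal versus DMSO.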
# [17] = read-out: Cytochrome P450 3A4 (Homo sapiens) (UniProt P08684); experiment: CLD_CYP3A4_24hr: CellzDirect (CLD) Gene Expression Assay for xenobiotic metabolism (CYP3A4) at 24 hours (AID 2283689)
# Procedure, shortened: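 Primary human hepatocytes from two donors dosed daily with fresh compound for two days, 0.2% DMSO vehicle. CYP3A4 mRNA at 24 hr by qNPA chemiluminescence; gain-of-signal fit versus DMSO, cytotoxicity flagged by morphology.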
# [18] = read-out: Cytochrome P450 2B6 (Homo sapiens) (UniProt P20813); experiment: CLD_CYP2B6_24hr: CellzDirect (CLD) Gene Expression Assay for xenobiotic metabolism (CYP2B6) at 24 hours (AID 2283686)
# Procedure, shortened: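 Primary human hepatocytes dosed daily for two days with fresh solutions, harvested at 24 hours; mRNA induction quantified by qNPA chemiluminescence, gain of signal vs 0.2% DMSO vehicle. Cytotoxicity annotated from phase-contrast morphology.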
# [19] = molecular target: Estrogen receptor (Homo sapiens) (UniProt P03372); experiment: ATG_ERa_TRANS: Attagene TRANS-FACTORIAL HepG2 Assay for human Estrogen Receptor alpha (ERa) (AID 2282970); conditions: HepG2 Attagene TRANS ERa GAL4 reporter, mRNA
# Procedure, shortened: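 HepG2 cells transiently transfected with multiplexed GAL4-UAS reporter units; ERa activity read via exogenous chimeric NR-Gal4 protein. After 24 hour compound exposure, reporter mRNA measured by RT-PCR with 6-FAM labelling and capillary electrophoresis; gain-of-signal fitted relative to DMSO.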
smiles,measurement,setting,value
CCOC(=O)c1ccccc1C(=O)OCC,AC50,[1],inconclusive: 112 nM
C=CCc1ccc2c(c1)OCO2,AC50,[2],inconclusive: 39.1 µM
same,AC50,[3],inconclusive: 25 µM
O=C(N[C@H](c1ccccc1)[C@@H]1CN2CCC1CC2)c1c(Cl)ccc(C(F)(F)F)c1Cl,outcome,[1],inactive
same,AC50,[4],active: 23.5 nM
same,AC50,[5],active: 23.9 µM
same,AC50,[6],inconclusive: 0.362 µM
same,AC50,[7],inconclusive: 497 nM
O=C(OC1CCCCC1)c1ccccc1C(=O)OC1CCCCC1,outcome,[8],inactive
CCOP(O)OCC,outcome,[9],inactive
O=P(O)(O)CCCl,AC50,[7],inconclusive: 704 nM
Cc1ccc(N)c(N)c1,outcome,[10],inactive
O=P(OCCCl)(OCCCl)OCCCl,AC50,[11],inconclusive: 1.21 nM
O=C(NC(=O)c1c(F)cccc1F)Nc1cc(Cl)c(Oc2ncc(C(F)(F)F)cc2Cl)c(Cl)c1,outcome,[12],inactive
O=P(OCC(Br)CBr)(OCC(Br)CBr)OCC(Br)CBr (stereo unspecified),outcome,[13],inactive
CCCSC(=O)N(CCC)CCC,outcome,Caspase-3 (Homo sapiens),inactive
same,outcome,[4],inactive
COP(=O)(NC(C)=O)SC (stereo unspecified),AC50,[13],inconclusive: 25 µM
same,outcome,[10],inactive
same,outcome,[14],inactive
same,AC50,[11],inconclusive: 10 nM
CC(C)C1(C)N=C(c2ncccc2C(=O)O)NC1=O (stereo unspecified),AC50,[15],inconclusive: 25 µM
same,AC50,[16],inconclusive: 86.8 nM
same,AC50,[17],inconclusive: 20 µM
CCNc1nc(Cl)nc(NC(C)(C)C#N)n1,AC50,[18],active: 3.69 µM
Oc1c(Cl)cc(Cl)cc1Cl,AC50,Caspase-3 (Homo sapiens),inconclusive: 0.0866 µM
Nc1cnn(-c2ccccc2)c(=O)c1Cl,AC50,[15],inconclusive: 25 µM
same,AC50,[14],inconclusive: 20 µM
same,AC50,[17],inconclusive: 0.0012 µM
OCCN(CCO)CCO,AC50,[15],inconclusive: 25 µM
CC(=O)/C=C/c1ccccc1,AC50,[8],inconclusive: 100 µM
CS(=O)(=O)NC(=O)c1cc(Oc2ccc(C(F)(F)F)cc2Cl)ccc1[N+](=O)[O-],AC50,[2],inconclusive: 0.62 µM
same,AC50,Caspase-3 (Homo sapiens),inconclusive: 6.7 µM
CC(C)[C@H](C(=O)O[C@H](C#N)c1cccc(Oc2ccccc2)c1)c1ccc(Cl)cc1,outcome,[16],inactive
same,AC50,[5],active: 4.82 µM
same,AC50,[13],inconclusive: 4.19 µM
same,outcome,[18],inactive
CCCN(CC)CC1COC2(CCC(C(C)(C)C)CC2)O1 (stereo unspecified),outcome,[16],inactive
same,AC50,[12],inconclusive: 25 µM
COP(=O)(OC)C(O)C(Cl)(Cl)Cl (stereo unspecified),AC50,[11],active: 3.52 µM and active: 1.47 µM
CC(C)(C)c1ccccc1O,AC50,[10],active: 55.4 µM
CN(C)[C@@H]1C(=O)C(C(N)=O)=C(O)[C@@]2(O)C(=O)C3=C(O)c4c(O)cccc4[C@@](C)(O)[C@H]3C[C@@H]12,outcome,[9],inactive
CC(Oc1cccc(Cl)c1)C(=O)O (stereo unspecified),outcome,[3],inactive
same,AC50,[14],inconclusive: 20 µM
same,AC50,[18],inconclusive: 0.00198 µM
same,AC50,[17],inconclusive: 2.1 µM
CCCN(CCC)c1c([N+](=O)[O-])cc(C(C)C)cc1[N+](=O)[O-],AC50,[6],inconclusive: 25 µM
same,outcome,[12],inactive
c1ccc(N=NNc2ccccc2)cc1,AC50,[19],active: 27.1 µM
CNC(=O)Oc1cc(C)c(SC)c(C)c1,AC50,[19],active: 8.61 µM
C[C@@H]1O[C@@H](O[C@H]2C[C@@H](O)[C@]3(CO)[C@H]4[C@H](O)C[C@]5(C)[C@@H](C6=CC(=O)OC6)CC[C@]5(O)[C@@H]4CC[C@]3(O)C2)[C@H](O)[C@H](O)[C@H]1O,AC50,[19],inconclusive: 3.79 µM

# Random excerpt: three entries already listed, in no set order.
smiles,measurement,setting,value
CC(C)C1(C)N=C(c2ncccc2C(=O)O)NC1=O (stereo unspecified),AC50,[15],inconclusive: 25 µM
COP(=O)(NC(C)=O)SC (stereo unspecified),AC50,[13],inconclusive: 25 µM
O=C(N[C@H](c1ccccc1)[C@@H]1CN2CCC1CC2)c1c(Cl)ccc(C(F)(F)F)c1Cl,AC50,[7],inconclusive: 497 nM
